Patent publication US20230406900 (published 2023)
Values joined by “and” are separate entries in the source; they are usually repeats but may differ in a detail not shown here. Identical values can stand only once.

Assay: general procedure: Fmoc solid-phase peptide synthesis; Fmoc-Gly-Wang Resin; DIC + HOBt·H2O or Ethyl (hydroxyimino)cyanoacetate; HATU or DEPBT + DIPEA
Conditions: whole synthesis

With semaglutide the isolated yield (estimated total recovery, run 1) was 16.9% and 17.3% and 22.0% and 24.7%, the crude mass (scale 31.8 mmol) was 14.229 g and the “crude purity (method not given)” value (run 1) was 34.85% and 34.51% and 35.8% and 29.4%. The “crude purity (method not given)” value (run 2) was 60.35% and 52.17% and 57.13%.
